Measured values: patent US20030198990A1
Results are given in words; binding and its absence hold for the method and conditions named. For part of these data: Binding seen in cells or lysates may run through a third protein. Some results given as binding are weak or reduced against the parent protein; the word gives no strength. For part of these data: Tags and fused reporters may be left off the sequences shown. Blank lines part the entries; values can stand above or below the binder they belong to.

Chains of the proteins cited; added tags and fusions are not shown. Lines headed by an entry give the natural chain unless they say otherwise; changes in a name come on top.
UniProt P04386: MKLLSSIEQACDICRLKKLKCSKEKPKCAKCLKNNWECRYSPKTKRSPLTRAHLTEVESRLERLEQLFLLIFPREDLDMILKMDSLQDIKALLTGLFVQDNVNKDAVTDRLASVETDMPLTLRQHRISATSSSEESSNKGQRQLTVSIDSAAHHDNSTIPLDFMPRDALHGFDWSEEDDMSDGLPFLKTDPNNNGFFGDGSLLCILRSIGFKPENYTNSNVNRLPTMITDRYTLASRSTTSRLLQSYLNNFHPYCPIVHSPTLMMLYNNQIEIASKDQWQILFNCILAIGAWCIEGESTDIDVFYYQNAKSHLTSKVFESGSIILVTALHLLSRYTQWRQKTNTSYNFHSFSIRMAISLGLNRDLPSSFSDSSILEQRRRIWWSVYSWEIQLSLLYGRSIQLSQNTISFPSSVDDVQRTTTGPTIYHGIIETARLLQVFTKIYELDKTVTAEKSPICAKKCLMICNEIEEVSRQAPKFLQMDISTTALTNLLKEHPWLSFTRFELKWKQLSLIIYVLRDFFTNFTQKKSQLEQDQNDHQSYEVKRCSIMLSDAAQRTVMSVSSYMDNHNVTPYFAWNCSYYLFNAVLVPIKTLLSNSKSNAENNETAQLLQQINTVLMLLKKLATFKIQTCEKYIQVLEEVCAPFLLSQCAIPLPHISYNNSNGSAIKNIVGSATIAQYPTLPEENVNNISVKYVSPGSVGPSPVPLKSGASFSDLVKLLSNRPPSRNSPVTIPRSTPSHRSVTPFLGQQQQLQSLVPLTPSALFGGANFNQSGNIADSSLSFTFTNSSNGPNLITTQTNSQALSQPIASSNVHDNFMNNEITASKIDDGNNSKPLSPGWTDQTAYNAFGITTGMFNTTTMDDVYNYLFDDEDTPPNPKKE
UniProt P10275: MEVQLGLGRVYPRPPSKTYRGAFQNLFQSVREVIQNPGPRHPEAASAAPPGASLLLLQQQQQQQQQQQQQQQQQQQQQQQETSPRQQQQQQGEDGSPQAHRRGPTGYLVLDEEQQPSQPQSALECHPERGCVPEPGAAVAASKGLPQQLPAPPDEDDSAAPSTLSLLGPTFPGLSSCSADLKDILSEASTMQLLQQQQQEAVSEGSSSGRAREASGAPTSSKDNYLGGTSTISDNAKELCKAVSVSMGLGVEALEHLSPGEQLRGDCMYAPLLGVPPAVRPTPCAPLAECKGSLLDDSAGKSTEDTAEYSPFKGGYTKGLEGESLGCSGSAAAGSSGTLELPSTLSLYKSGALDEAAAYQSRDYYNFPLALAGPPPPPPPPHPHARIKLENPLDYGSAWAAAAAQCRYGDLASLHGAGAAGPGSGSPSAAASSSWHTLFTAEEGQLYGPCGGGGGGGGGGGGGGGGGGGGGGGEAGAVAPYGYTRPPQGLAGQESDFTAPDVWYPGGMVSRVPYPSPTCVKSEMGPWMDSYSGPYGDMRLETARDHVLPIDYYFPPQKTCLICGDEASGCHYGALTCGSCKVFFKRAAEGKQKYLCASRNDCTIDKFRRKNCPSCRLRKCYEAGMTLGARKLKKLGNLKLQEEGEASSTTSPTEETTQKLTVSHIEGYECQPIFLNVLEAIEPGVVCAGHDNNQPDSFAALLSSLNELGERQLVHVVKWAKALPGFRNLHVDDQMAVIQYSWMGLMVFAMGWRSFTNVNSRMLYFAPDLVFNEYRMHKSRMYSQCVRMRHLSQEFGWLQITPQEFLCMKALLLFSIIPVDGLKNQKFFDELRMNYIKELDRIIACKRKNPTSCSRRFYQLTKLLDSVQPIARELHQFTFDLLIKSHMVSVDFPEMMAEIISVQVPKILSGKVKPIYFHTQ

What was measured:
[1] = molecular target: GAL0AR: hormone binding domain of wtAR fused to the GAL4 DBD (human) (UniProt P04386+P10275); experiment: mammalian two-hybrid, CAT reporter, DU145 cells, 10^-8 M DHT
[2] = molecular target: His-tag column purified baculovirus AR (UniProt P10275); experiment: summing-up sentence of the examples (GST pull-down and two-hybrid)
[3] = molecular target: His-tag column purified baculovirus AR (UniProt P10275); experiment: GST pull-down on glutathione-Sepharose beads, with or without DHT, Western blot with anti-AR NH27

binding [1]: binds
B1: ARA54, full length (protein)
chain: MSSEDREAQEDELLALASIYDGDEFRKAESVQGGETRIYLDLPQNFKIFVSGNSNECLQNSGFEYTICFLPPLVLNFELPPDYPSSSPPSFTLSGKWLSPTQLSALCKHLDNLWEEHRGSVVLFAWMQFLKEETLAYLNIVSPFELKIGSQKKVQRRTAQASPNTELDFGGAAGSDVDQEEIVDERAVQDVESLSNLIQEILDFDQAQQIKCFNSKLFLCSICFCEKLGSECMYFLECRHVYCKACLKDYFEIQIRDGQVQCLNCPEPKCPSVATPGQVKELVEAELFARYDRLLLQSSLDLMADVVYCPRPCCQLPVMQEPGCTMGICSSCNFAFCTLCRLTYHGVSPCKVTAEKLMDLRNEYLQADEANKRLLDQRYGKRVIQKALEEMESKEWLEKNSKSCPCCGTPIEKLDGCNKMTCTGCMQYFCWICMGSLSRANPYKHFNDPGSPCFNRLFYAVDVDDDIWEDEVED

binding [2]: binds
binding [3]: binds
B2: Full-length Rb fused to glutathione-S-transferase (GST-Rb1-928) (protein, not shown: a dimerising Fc or GST)
chain: MPPKTPRKTAATAAAAAAEPPAPPPPPPPEEDPEQDSGPEDLPLVRLEFEETEEPDFTALCQKLKIPDHVRERAWLTWEKVSSVDGVLGGYIQKKKELWGICIFIAAVDLDEMSFTFTELQKNIEISVHKFFNLLKEIDTSTKVDNAMSRLLKKYDVLFALFSKLERTCELIYLTQPSSSISTEINSALVLKVSWITFLLAKGEVLQMEDDLVISFQLMLCVLDYFIKLSPPMLLKEPYKTAVIPINGSPRTPRRGQNRSARIAKQLENDTRIIEVLCKEHECNIDEVKNVYFKNFIPFMNSLGLVTSNGLPEVENLSKRYEEIYLKNKDLDARLFLDHDKTLQTDSIDSFETQRTPRKSNLDEEVNVIPPHTPVRTVMNTIQQLMMILNSASDQPSENLISYFNNCTVNPKESILKRVKDIGYIFKEKFAKAVGQGCVEIGSQRYKLGVRLYYRVMESMLKSEEERLSIQNFSKLLNDNIFHMSLLACALEVVMATYSRSTSQNLDSGTDLSFPWILNVLNLKAFDFYKVIESFIKAEGNLTREMIKHLERCEHRIMESLAWLSDSPLFDLIKQSKDREGPTDHLESACPLNLPLQNNHTAADMYLSPVRSPKKKGSTTRVNSTANAETQATSAFQTQKPLKSTSLSLFYKKVYRLAYLRLNTLCERLLSEHPELEHIIWTLFQHTLQNEYELMRDRHLDQIMMCSMYGICKVKNIDLKFKIIVTAYKDLPHAVQETFKRVLIKEEEYDSIIVFYNSVFMQRLKTNILQYASTRPPTLSPIPHIPRSPYKFPSSPLRIPGGNIYISPLKSPYKISEGLPTPTKMTPRSRILVSIGESFGTSEKFQKINQMVCNSDRVLKRSAEGSNPPKPLKKLRFDIEGSDEADGSKHLPGESKFQQKLAEMTSTRTRMQKQKMNDSMDTSNKEEK
